Laboratory results from publication PMC6695811, “Protein Phosphatase Ppz1 Is Not Regulated by a Hal3-Like Protein in Plant Pathogen Ustilago maydis” (International Journal of Molecular Sciences, 2019).
Like-named read-outs stand apart in the source and are kept apart here. Results are given in words; binding and its absence hold for the method and conditions named. Binding seen in cells or lysates may run through a third protein. Binding calls can cover weak binding; strength is not graded here. For some of these results: Tags and fused reporters may be left off the sequences shown.

T1: GST-tagged S. cerevisiae Ppz1 (GST-ScPpz1) (S. cerevisiae) (UniProt P26570)
T1 sequence: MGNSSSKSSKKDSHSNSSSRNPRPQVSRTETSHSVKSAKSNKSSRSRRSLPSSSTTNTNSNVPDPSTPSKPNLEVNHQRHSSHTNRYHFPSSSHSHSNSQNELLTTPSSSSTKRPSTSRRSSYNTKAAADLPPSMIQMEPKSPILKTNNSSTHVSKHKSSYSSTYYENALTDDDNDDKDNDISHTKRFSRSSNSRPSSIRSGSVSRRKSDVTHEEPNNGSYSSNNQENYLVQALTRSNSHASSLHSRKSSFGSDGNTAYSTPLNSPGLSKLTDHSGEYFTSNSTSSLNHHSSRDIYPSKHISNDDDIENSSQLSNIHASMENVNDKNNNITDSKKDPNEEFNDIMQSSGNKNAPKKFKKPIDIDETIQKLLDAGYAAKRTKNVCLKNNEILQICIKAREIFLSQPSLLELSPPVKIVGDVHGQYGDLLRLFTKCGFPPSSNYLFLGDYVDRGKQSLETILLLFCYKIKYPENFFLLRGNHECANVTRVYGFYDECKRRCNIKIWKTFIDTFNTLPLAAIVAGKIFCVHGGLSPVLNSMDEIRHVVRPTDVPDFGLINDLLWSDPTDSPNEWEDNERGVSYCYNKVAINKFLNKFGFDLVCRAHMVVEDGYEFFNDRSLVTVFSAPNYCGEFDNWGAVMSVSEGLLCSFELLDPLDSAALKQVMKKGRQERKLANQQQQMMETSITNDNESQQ


Experiments:
Experiment in all cases: pull-down; GST-tagged phosphatases on glutathione agarose beads (4 ug UmPpz1; 8 ug ScPpz1 or ScPpz1-Cter) incubated with protein extracts of S. cerevisiae IM021 (ppz1 hal3) expressing 3HA-tagged Hal3 versions; beads washed, SDS-PAGE, anti-HA immunoblot; only the target purified
[1] = target: T1, GST-tagged S. cerevisiae Ppz1 (GST-ScPpz1) (S. cerevisiae)
[2] = target: GST-tagged Ustilago maydis Ppz1 (GST-UmPpz1) (Ustilago maydis)
[3] = target: GST-tagged Ustilago maydis Ppz1 (GST-UmPpz1) (Ustilago maydis); remark: listed apart in the source

Molecule	binding [1]	binding [2]	binding [3]
3xHA-tagged PPCDC domain of Ustilago maydis Hal3 (UmHal3_PD) (domain or fragment)	binds weakly		
3xHA-tagged full-length Ustilago maydis Hal3 (UmHal3) (from UniProt A0A0D1DP09)	binds weakly	binds weakly	
3xHA-tagged S. cerevisiae Hal3 (ScHal3) (protein, UniProt P36024 1-562) MTAVASTSGKQDADHNQSIECPRFSRGQKEILLDHEDAKGKDSIINSPVSGRQSISPTLSNATTTTTKSIMNATGTSGAVVSNTPEPGLKRVPAVTFSDLKQQQKQDSLTQLKNDSERTKSPNSNPAPVSNSIPGNHAVIPNHTNTSRTTQLSGSPLVNEMKDYDPKKKDSALKIVDTMKPDKIMATSTPISRENNKVTAKAPTSITLRKEDAQDQANNVSGQINVRSTPEETPVKQSVIPSIIPKRENSKNLDPRLPQDDGKLHVLFGATGSLSVFKIKPMIKKLEEIYGRDRISIQVILTQSATQFFEQRYTKKIIKSSEKLNKMSQYESTPATPVTPTPGQCNMAQVVELPPHIQLWTDQDEWDAWKQRTDPVLHIELRRWADILVVAPLTANTLSKIALGLCDNLLTSVIRAWNPSYPILLAPSMVSSTFNSMMTKKQLQTIKEEMSWVTVFKPSEKVMDINGDIGLGGMMDWNEIVNKIVMKLGGYPKNNEEEDDDEDEEEDDDEEEDTEDKNENNNDDDDDDDDDDDDDDDDDDDDDDDDEDEDEAETPGIIDKHQ			binds
